Assay: Real-time conductance change of silicon nanowires before and after dNTP addition
Conditions: equimolar solutions (10 μM) in 0.05×PBS buffer; dATP injected at 1000 s, supercharged dTTP at 2000 s

SMILES	change in conductance of the nanowires
[N-]=[N+]=NC(COc1cccc(C(=O)NCCNC(=O)c2cc(C(=O)O)cc(C(=O)O)c2)c1)OCCOCC(=O)NCC#Cc1cn([C@H]2C[C@H](O)[C@@H](COP(=O)(O)OP(=O)(O)OP(=O)(O)O)O2)c(=O)[nH]c1=O (some centres unmarked) [SC-TTP, Penta-Triethylammonium Cleavable SCTTP]	20%
Nc1ncnc2c1ncn2[C@H]1C[C@H](O)[C@@H](COP(=O)(O)OP(=O)(O)OP(=O)(O)O)O1 [dATP, deoxyandenosinetriphosphate, reference compound]	16%

Reference: patent US11180523B2, “Design, synthesis and use of synthetic nucleotides comprising charge mass tags” (QuantuMDx Group Limited, priority 2016, dated 2021)
